{
  "sequences": {"note": "The chains behind the UniProt entries cited, without tags or fusion partners.", "UniProt P15682": "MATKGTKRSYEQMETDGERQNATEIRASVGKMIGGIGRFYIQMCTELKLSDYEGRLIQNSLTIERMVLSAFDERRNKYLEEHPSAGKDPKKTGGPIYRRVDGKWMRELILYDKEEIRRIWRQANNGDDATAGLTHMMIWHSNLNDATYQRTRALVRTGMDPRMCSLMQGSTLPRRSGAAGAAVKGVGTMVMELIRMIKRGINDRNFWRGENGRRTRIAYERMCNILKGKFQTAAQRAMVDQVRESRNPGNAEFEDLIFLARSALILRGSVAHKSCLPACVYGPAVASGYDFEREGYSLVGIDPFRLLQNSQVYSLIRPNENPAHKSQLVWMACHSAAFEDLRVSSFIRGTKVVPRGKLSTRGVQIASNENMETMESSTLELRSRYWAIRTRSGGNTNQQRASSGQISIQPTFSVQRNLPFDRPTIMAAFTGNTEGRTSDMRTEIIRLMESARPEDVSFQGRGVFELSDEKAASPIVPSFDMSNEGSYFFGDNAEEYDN", "UniProt P05777": "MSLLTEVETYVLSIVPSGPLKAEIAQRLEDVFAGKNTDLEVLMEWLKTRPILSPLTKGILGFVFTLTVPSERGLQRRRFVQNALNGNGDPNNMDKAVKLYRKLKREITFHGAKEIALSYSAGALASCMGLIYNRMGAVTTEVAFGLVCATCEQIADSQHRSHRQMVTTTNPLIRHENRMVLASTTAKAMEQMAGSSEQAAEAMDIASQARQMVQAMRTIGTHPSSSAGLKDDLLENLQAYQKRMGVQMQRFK"},
  "source": "paper PMC8104107",
  "target": "FLAG-NP (plasmid pHW2000-FLAG-GFP-NP) (influenza A virus A/WSN/33 (H1N1)) (UniProt P15682)",
  "assay": "co-IP; […] (50 mM Tris-HCl pH 7.4, 150 mM NaCl, 1% Triton X-100); […]",
  "note": "Results are given in words; binding and its absence hold for the method and conditions named. Binding seen in cells or lysates may run through a third protein. Some results given as binding are weak or reduced against the parent protein; the word gives no strength.",
  "data": [
    {"substance": "M1 of influenza A/WSN/33 (H1N1) virus made in infected cells (from UniProt P05777 1-252)", "values": [
      {"measurement": "binding", "value": "binds"}
    ]}
  ]
}
